Reference: PubChem BioAssay AID2685 (National Center for Advancing Translational Sciences (NCATS), 2010)
The campaign covered roughly 320,000 compounds. About 2,100 (0.66%) were called active. Inconclusive results, whose numbers are uncertain, are shown with a selection of clear calls. The call rests on the fitted dose curve; in most records, active means well fitted inhibition curve with a large enough effect in the signal ratio, with a control signal flat (not every such curve was filed as active); inconclusive means small, poorly fitted or top-dose-only effect, or effect the other way, or a change in a side signal; inactive means flat fitted curve, though single readings scatter; the % refers to the signal ratio. Potencies beside an inconclusive call are fits to weak or partial responses and may not hold up.

Test: qHTS Assay for Lipid Storage Modulators in Drosophila S3 Cells
Conditions: BODIPY lipid droplet fluorescence, 18-24 h, cells fed with added oleic acid; lipid storage change, negative = inhibition: at 46.1 µM (top of the series) unless noted
Method in brief: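 Laser-scanning cytometry quantifies lipid droplet accumulation (500–530 nm total intensity; droplet/cell object ratio) in oleic acid-fed (400 uM added) Drosophila S3 cells treated with a concentration series. 20 uM Triacsin C defined 100% inhibition.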
On the % scale 0 is the no-effect control and ±100 the full control effect; potency means the concentration at half of the fitted maximal effect.

Compound | lipid storage change, negative = inhibition | Potency
Cc1ccc(C(=O)N/C(=C\c2cn(C)c3ccccc23)C(=O)NCCCn2ccnc2)cc1 | inconclusive: -34.3% | –
Cc1cccn2c(=O)c(C=O)c(N3CCC4(CC3)OCCO4)nc12 | inconclusive: 5.3% | –
CN(C)Cc1c(O)c(Cl)cc2c3c(c(=O)oc12)CCCC3 | – | inconclusive: 1.64 µM [falling, partial curve, poor fit]
CCn1c(SCC(=O)Nc2ccc(Br)cc2)nc2sc3c(c2c1=O)CCN(C)C3 | inconclusive: -13.4% | –
O=C(C1=C(O)C(=O)N(CCN2CCOCC2)C1c1ccco1)c1cc2ccccc2o1 (stereo not given) | inconclusive: 131% | –
Cc1cc(C(=O)Nc2ccon2)c(C)o1 | – | inconclusive: 4.11 µM [rising, single point]
CNC(=S)NNC(=O)c1sccc1OCc1ccc(Cl)cc1Cl | inconclusive: 158% | –
O=C(COc1cccc(NC(=O)c2cccc([N+](=O)[O-])c2)c1)c1ccc(F)cc1 | inconclusive: 4.98% | –
COc1ccc(OC)c(C(c2c(O)nc(SC)[nH]c2=O)c2c(O)nc(SC)[nH]c2=O)c1 | inconclusive: 38% | –
Cc1ccc(-c2[nH]c(-c3ccc(Cl)cc3)nc2SCC(=O)NCC2CCCO2)cc1 (stereo not given) | inconclusive: 23% | –
CC(=O)Nc1ccc(S(=O)(=O)n2cnc(C)c2)cc1 | inconclusive: 12.3% | –
O=c1[nH]c(C2CCN(S(=O)(=O)c3ccc(S(=O)(=O)NC4CC4)cc3)CC2)nc2c1nnn2Cc1ccccc1 | inconclusive: 106% | –
CN(C)c1ccc(C(=S)N2CCN(S(=O)(=O)c3ccccc3)CC2)cc1 | inconclusive: -20.8% | –
Cn1c(Cl)c(/C=N/OC(=O)C2CC2)c2ccccc21 | inconclusive: 6.94% | –
COCc1[nH][nH]c(=O)c1C=Nc1ccc(OC(F)(F)F)cc1 | inconclusive: 0.379% | –
COc1ccc(-c2cn[nH]c2-c2ccc(OCc3ccc([N+](=O)[O-])cc3)cc2O)cc1OC | inconclusive: -82% | –
COCCN(C(=O)COC(=O)CCc1ccccc1)c1c(N)n(Cc2ccccc2)c(=O)[nH]c1=O | – | inconclusive: 16.4 µM [activator, partial curve, poor fit]
FC(F)(F)c1ccc(Oc2ccc3c(C(F)(F)F)cc(C(F)(F)F)nc3n2)cc1 | inconclusive: 9.31% | –
COc1cc2cc(C(c3nnnn3C(C)(C)C)N3CCc4ccccc4C3)c(=O)[nH]c2cc1OC (stereo not given) | – | inconclusive: 11.6 µM [activator, partial curve]
O=C(COC(=O)c1ccccn1)NCc1cccc(Cl)c1 | inconclusive | –
CC(Oc1ccccc1)C(=O)Nc1ccc(NC(=O)c2ccccc2)cc1 (stereo not given) | – | inconclusive: 0.0058 µM [falling, full curve, poor fit]
N#C/C(=N\Nc1ccc([N+](=O)[O-])cc1)C(N)=S | – | inconclusive: 0.13 µM [falling, full curve, poor fit]
O=C(COC(=O)c1ccc(N2CCCC2=O)cc1)c1ccccc1 | inconclusive: -5.81% | –
Cc1ccc(C(=O)Nc2c3c(nn2C(C)(C)C)CS(=O)(=O)C3)cc1[N+](=O)[O-] | inconclusive: 56.1% | –
COCCn1c(SCCN2CCOCC2)nc2c1c(=O)[nH]c(=O)n2C | – | inconclusive: 2.59 µM [falling, single point]

Compound | lipid storage change, negative = inhibition | Potency
Cc1nn(C)c(C)c1S(=O)(=O)N1CCC(C(=O)Nc2ccc3c(c2)OCCO3)CC1 | inconclusive: -0.105% | –
CCN(CC)CCCC(C)NC(=O)c1ccc(C(F)(F)F)cc1 (stereo not given) | inconclusive: 2.71% | –
COc1ccc(CC(NC(C)=O)C(=O)NC2CCN(C(=O)c3cc(OC)c(OC)c(OC)c3)CC2)cc1 (stereo not given) | inconclusive: 3.06% | –
COc1nnnc2c1sc1nc(N3CCOCC3)c3c(c12)CC(C)(C)OC3 | inconclusive: 10.1% | –
CCCc1[nH]nc2c1C(c1ccc(O)c(OC)c1)C(C#N)=C(N)O2 (stereo not given) | inconclusive: 34.6% | –
CC1CCN(Cc2nnnn2CCCC(=O)NCCN2CCOCC2)CC1 | inconclusive: 19.9% | –
COc1cc(-c2nnc(SCC(=O)N(Cc3ccccc3)C(C)(C)C)o2)cc(OC)c1OC | inconclusive: 35.5% | –
Cc1sc2ncnc(N3CCN(S(=O)(=O)c4ccccc4)CC3)c2c1C | inconclusive: -65.7% | –
Clc1ccc2nsnc2c1NC1=NCCN1 | inconclusive: 4.11% | –
CCOC(=O)N1CCN(Cc2c(F)cccc2F)CC1 | inconclusive: -1.24% | –
O=C(Oc1ccc(Br)cc1C(=S)N1CCOCC1)c1cccc([N+](=O)[O-])c1 | – | inconclusive: 6.51 µM [falling, single point]
Cc1cccc([C@H](NC(=O)OC(C)(C)C)C(=O)OC(C)(C)C)c1 | – | inconclusive: 1.16 µM [activator, single point]
COc1cc(COC(=O)Oc2ccc(CNC(C)=O)cc2OC)c([N+](=O)[O-])cc1OC | inconclusive: 7.9% | –
CC(C)Cc1nnc(NC(=O)c2cc([N+](=O)[O-])ccc2N2CCOCC2)s1 | – | inconclusive: 6.51 µM [activator, partial curve, poor fit]
O=Cc1cccc(OC(=O)/C=C/c2ccco2)c1 | inconclusive: 126% | –
COc1ccc(C(=O)Cn2ccsc2=NC(C)=O)cc1 | inconclusive: 63.6% | –
O=C1/C(=C\c2ccc(O)cc2)SC(=S)N1c1cccnc1 | inconclusive: -15.8% | –
COc1ccc(N2CCN(C(=O)Cn3ncc4c([nH]c5ccccc54)c3=O)CC2)cc1 | – | inconclusive: 18.4 µM [activator, single point]
COCc1nc2sc3c(c2c(=O)[nH]1)CCCC3 | inconclusive: 9.26% | –
COc1ccc(N2C(=O)CC(C#N)=C2N)cc1 | inconclusive: -16.2% | –
Cc1ccccc1-c1nc(CS(=O)(=O)CC(=O)NCc2ccc3c(c2)OCO3)c(C)o1 | – | inconclusive: 14.6 µM [activator, partial curve]
CC1=C(C(=O)Nc2ccccc2)C(c2ccccc2)N2C(=O)CSC2=N1 (stereo not given) | – | inconclusive: 4.11 µM [activator, single point]
Cc1cccn2c(=O)c(/C=C(\C#N)C(=O)NC3CCS(=O)(=O)C3)c(Oc3ccccc3Cl)nc12 (stereo not given) | – | inconclusive: 18.4 µM [falling, single point]
O=C(Nc1ccccc1N1CCOCC1)c1ccc(Cl)c(S(=O)(=O)N2CCCC2)c1 | – | inconclusive: 29.1 µM [falling, partial curve, poor fit]
CCC1(C)Cc2ccccc2-c2nc(SCC(N)=O)[nH]c(=O)c21 (stereo not given) | inconclusive: 3.95% | –

Compound | lipid storage change, negative = inhibition | Potency
Cc1ccc(S(=O)(=O)N2CC(C)N(C(=O)N3CCOCC3)C2C)cc1 (stereo not given) | inconclusive: 180% | –
O=C(C[n+]1cccc(O)c1)NCc1ccc(Cl)cc1 | inconclusive: 71.8% | –
COC(=O)c1ccc(C(NC(=O)OCc2ccccc2)/C(C)=C/[C@@H](C)C(=O)NCc2ccc(-c3ccccc3)cc2)cc1 (stereo not given in full) | inconclusive: 25.7% | –
Cc1ccc(NC(=O)COc2coc(CN3CCN(c4ccccc4)CC3)cc2=O)cc1 | inconclusive: 18.3% | –
COc1ccc(-c2nn(-c3ccccc3)cc2/C=C/C(=O)NCCCn2ccnc2)cc1OC | inconclusive: 27.1% | –
Cc1ccc2nc3ccc(N4CCN(C)CC4)nn3c(=O)c2c1 | inconclusive: 7.97% | –
Cc1ccc([C@@H]2CC=C(C(=O)O)[C@H](c3ccc(F)cc3)N2S(=O)(=O)c2ccc(C)cc2)cc1 | inconclusive: 6.43% | –
COc1ccc(S(=O)(=O)N2CCOCC2)cc1NC(=O)c1ccc2c(c1)OCCO2 | – | inconclusive: 4.61 µM [rising, partial curve]
CSc1nsc(SC)c1C(=O)N1CCN(S(=O)(=O)c2ccc(C)cc2)C1C (stereo not given) | – | inconclusive: 29.1 µM [rising, single point]
CC(=O)Nc1nnc(S(N)(=O)=O)s1 | inconclusive: -23.3% | –
COCc1cc(=O)n2[nH]c(-c3ccco3)cc2n1 | inconclusive: 7.57% | –
CS(=O)(=O)c1ccc(NC(=O)c2cccc(-n3cnnn3)c2)cc1 | inconclusive: 2.49% | –
CCOC(=O)N1CCN(C(=O)Cc2ccccc2[N+](=O)[O-])CC1 | – | inconclusive: 0.58 µM [activator, single point]
O=C(Nc1cccc(-n2cnnn2)c1)c1cccc(Cl)c1 | – | active: 14.6 µM
O=C(CCc1ccc(O)c(O)c1)N/N=C/c1cc2c(cc1[N+](=O)[O-])OCO2 | inconclusive: 28.3% | –
CCOC(=O)c1c(NC(=O)c2cccc(N3C(=O)CCC3=O)c2)sc(C)c1C | inconclusive: -6.82% | –
CC(=O)c1sc(NC(=O)c2ccco2)nc1-c1ccccc1 | inconclusive: -28.6% | –
Cc1ccc(S(=O)(=O)N2CCC(C(=O)OCC(=O)N(Cc3ccccc3)C(C)(C)C)CC2)cc1C | inconclusive: 16.2% | –
CC(C)C(NS(=O)(=O)c1cccc(C(F)(F)F)c1)C(=O)NCc1cccs1 (stereo not given) | inconclusive: 32.3% | –
COC(=O)C1=C(C)N=C2SCCC(=O)N2C1c1ccc(C(=O)OC)cc1 (stereo not given) | inconclusive: 47.1% | –
COc1cccc(NC(=O)c2sc3nc4n(c(=O)c3c2C)CCC4)c1 | – | active: 4.11 µM
O=C(COc1ccc(F)cc1)Nc1c(C(=O)N2CCC(N3CCCCC3)CC2)oc2ccccc12 | inconclusive: 255% | –
CC1CCc2sc(C(=O)NC3CCCCC3)cc2C1 (stereo not given) | inconclusive: -5.6% | –
COC(=O)c1ccc(NC(=O)c2ccc(OC(C)=O)c(OC)c2)cc1 | inconclusive: 12% | –
CCn1cc(C(=O)NCc2ccco2)c(=O)c2cc(F)c(N3CCN(C(=O)c4ccco4)CC3)cc21 | – | inconclusive: 0.326 µM [activator, full curve]

Some values from the results shown.
lipid storage change, negative = inhibition, O=C(COc1ccc(F)cc1)Nc1c(C(=O)N2CCC(N3CCCCC3)CC2)oc2ccccc12 is entered as inconclusive: 255%
lipid storage change, negative = inhibition, Cc1ccc(S(=O)(=O)N2CC(C)N(C(=O)N3CCOCC3)C2C)cc1 (stereo not given) is entered as inconclusive: 180%
